The values that follow come from the supplement of paper PMC7752906.

Structures can show the parent of a compound that is named as a salt. The list shows a part of the results. Repeats in this data set agree poorly, so a single value says little.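 About 40 Schistosoma mansoni schistosomula per well were imaged over time in bright field and compared with 0.1% DMSO wells. A drug counts as a hit if its Mahalanobis distance reaches 2.47 or more, three standard deviations above the DMSO control mean. Degeneracy is the fraction of worms scored opaque.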

For the test, the system named is Schistosoma mansoni schistosomula. As to the kind of experiment: Mahalanobis distance of static-rate-frequency phenotype descriptors from DMSO controls (dimensionless); higher = stronger phenotypic change versus DMSO. As to conditions: 10 µM; 72 h.
With `CC(=O)OCC(COC(C)=O)OC(C)=O` [Triacetin], the Mahalanobis distance is inactive: 1.34. In the case of `C[C@H]1[C@@H](O)O[C@@H]2O[C@@]3(C)CC[C@H]4[C@H](C)CC[C@@H]1[C@@]24OO3` [Artenimol], the Mahalanobis distance was active: 3.6.

Regarding `CCCCCC(C)N` (centres undefined) [Tuaminoheptane Sulfate], the Mahalanobis distance is inactive: 2.26. With `O=C(CCCN1CC=C(n2c(=O)[nH]c3ccccc32)CC1)c1ccc(F)cc1` [Droperidol], the Mahalanobis distance is inactive: 2.39. For `CCN(CC)CCNC(=O)c1cc(S(C)(=O)=O)ccc1OC` [Tiapride] the value was inactive: 2.14; for `CCn1cc(C(=O)O)c(=O)c2cnc(N3CCNCC3)nc21` [Pipemidic Acid], inactive: 1.56; for `COc1cc2nc(N3CCN(C(=O)c4ccco4)CC3)nc(N)c2cc1OC` [prazosin], inactive: 1.89. For `NCCS(=O)(=O)O` [Taurine], the Mahalanobis distance was active: 3.25. As for `CC(=O)N[C@@H](CC(=O)N[C@@H](CCC(=O)O)C(=O)O)C(=O)O` [Spaglumic Acid], the Mahalanobis distance was inactive: 1.87. For `Cc1ccc(S(=O)(=O)NC(=O)NN2CC3CCCC3C2)cc1` (centres undefined) [Gliclazide] the value was inactive: 2.26; for `COc1ccc2[nH]cc(CCNC(C)=O)c2c1` [Melatonin], active: 3.27; for `Cc1ccc(C(=O)c2cc(O)c(O)c([N+](=O)[O-])c2)cc1` [Tolcapone], inactive: 1.44. As for `NC[C@H]1O[C@H](O[C@H]2[C@H](O[C@@H]3O[C@H](CO)[C@@H](O)[C@H]3O)[C@@H](O)[C@H](N)C[C@@H]2N)[C@H](N)[C@@H](O)[C@@H]1O` [Ribostamycin Sulfate], the figure is inactive: 1.24; as for `C=CC[C@@H]1/C=C(\C)C[C@H](C)C[C@H](OC)[C@H]2O[C@@](O)(C(=O)C(=O)N3CCCC[C@H]3C(=O)O[C@H](/C(C)=C/[C@@H]3CC[C@@H](O)[C@H](OC)C3)[C@H](C)[C@@H](O)CC1=O)[C@H](C)C[C@@H]2OC` [Tacrolimus], inactive: 2.01; as for `CC(C)N1CCN(c2ccc(OCC3COC(Cn4cncn4)(c4ccc(Cl)cc4Cl)O3)cc2)CC1` (centres undefined) [Terconazole], active: 2.92. As for `CN1C2CCCC1CC(NC(=O)c1nn(C)c3ccccc13)C2` (centres undefined) [Granisetron], the Mahalanobis distance was active: 3.3. For `OC(CCN1CCCCC1)(c1ccccc1)C1CC2C=CC1C2` (centres undefined) [Biperiden] the value was active: 2.84.

Consider `Cc1ncc([N+](=O)[O-])n1CCO` [Metronidazole], for which the Mahalanobis distance was inactive: 2.05. As for `CCN(Cc1ccncc1)C(=O)C(CO)c1ccccc1` (centres undefined) [Tropicamide], the figure is active: 2.74; as for `CCN1CCN(C(=O)N[C@@H](C(=O)N[C@@H]2C(=O)N3[C@@H]2SC(C)(C)[C@@H]3C(=O)O)c2ccccc2)C(=O)C1=O` [Piperacillin Sodium], active: 2.54. With `CCN1CCN(C(=O)N[C@@H](C(=O)N[C@@H]2C(=O)N3[C@@H]2SC(C)(C)[C@@H]3C(=O)O)c2ccccc2)C(=O)C1=O` [Piperacillin], the Mahalanobis distance is inactive: 1.62.

As to `CC(=O)Oc1cccc(O)c1` [Resorcinol Monoacetate], the Mahalanobis distance was inactive: 2.25. As for `CO[C@@H]1[C@@H](OC(N)=O)[C@@H](O)[C@H](Oc2ccc3c(O)c(NC(=O)c4ccc(O)c(CC=C(C)C)c4)c(=O)oc3c2C)OC1(C)C` [Novobiocin Sodium], the figure is inactive: 2.36. As for `O=C(O[C@H]1CN2CCC1CC2)N1CCc2ccccc2[C@@H]1c1ccccc1` [Solifenacin Succinate], the figure is active: 3.66; as for `CN1CCCCC1CCN1c2ccccc2Sc2ccc([S+](C)[O-])cc21` (centres undefined) [Mesoridazine Besylate], inactive: 2.47. For `CN1CCCC(n2nc(Cc3ccc(Cl)cc3)c3ccccc3c2=O)CC1` (centres undefined) [azelastine], the Mahalanobis distance is inactive: 2.42. For `O=C(CNC(=O)c1ccc(Cl)cc1)NO` [Benurestat] the value was inactive: 1.44; for `CCCC(=O)Nc1ncnc2c1ncn2[C@@H]1O[C@@H]2COP(=O)(O)O[C@H]2[C@H]1OC(=O)CCC` [Bucladesine], inactive: 2.32; for `CC1=CC(=O)NS(=O)(=O)O1` [Acesulfame Potassium], inactive: 1.41. For `C=C1C[C@H]2[C@@H]3C=C(C)C4=CC(=O)CC[C@]4(C)[C@H]3CC[C@]2(C)[C@@]1(OC(C)=O)C(C)=O` [Melengestrol Acetate] the value was active: 3.32. With `CC(=O)Oc1cccc2c1C(=O)c1c(OC(C)=O)cc(C(=O)O)cc1C2=O` [Diacerin], the Mahalanobis distance is inactive: 1.44.

`N=C(N)NC(=N)N1CCOCC1` [Moroxydine Hydrochloride]: the Mahalanobis distance is active: 4.07. As for `COc1ccc(NS(=O)(=O)c2ccc(N)cc2)nn1` [Sulfamethoxypyridazine], the figure is inactive: 2.18.

On to `Nc1ccc(C(=O)NCC(=O)O)cc1` [Aminohippuric Acid], for which the Mahalanobis distance was inactive: 2.11.

In the case of `CCC[C@H](N[C@@H](C)C(=O)N1[C@H](C(=O)O)C[C@@H]2CCCC[C@@H]21)C(=O)OCC` [Perindopril Erbumine], the Mahalanobis distance was active: 3.39. As for `N=C(N)NCC1COC2(CCCCC2)O1` (centres undefined) [Guanadrel Sulfate], the figure is inactive: 1.54; as for `CC1(C)OC(=O)NC1=O` [Dimethadione], inactive: 1.82. For `OCCN1CCN(CCCN2c3ccccc3Sc3ccc(Cl)cc32)CC1` [perphenazine] the value was inactive: 1.53. For `CN(C)CCc1c[nH]c2ccc(Cn3cncn3)cc12` [Rizatriptan Benzoate] the value was inactive: 2.29; for `Nc1ccc(S(=O)(=O)c2ccc(N)cc2)cc1` [Dapsone], inactive: 2.25. `CC[N+](C)(C)Cc1ccccc1Br` [Bretylium Tosylate]: the Mahalanobis distance was inactive: 1.82. Take `Cc1onc(-c2c(Cl)cccc2Cl)c1C(=O)N[C@@H]1C(=O)N2[C@@H]1SC(C)(C)[C@@H]2C(=O)O` [Dicloxacillin Sodium]: the Mahalanobis distance was inactive: 1.77. On to `CN1C(C)(C)CCCC1(C)C` [Pempidine Tartrate], for which the Mahalanobis distance is inactive: 1.47. As for `CC(CCc1ccccc1)NCC(O)c1ccc(O)c(C(N)=O)c1` (centres undefined) [Labetalol], the figure is active: 2.5; as for `CCOC(=O)[C@H](CCc1ccccc1)N[C@@H](C)C(=O)N1Cc2ccccc2C[C@H]1C(=O)O` [Quinapril], inactive: 1.59; as for `O=C(O)c1cccnc1Nc1cccc(C(F)(F)F)c1` [Niflumic Acid], inactive: 1.76.

`CC1CC(OC(=O)C(O)c2ccccc2)CC(C)(C)C1` (centres undefined) [Cyclandelate]: the Mahalanobis distance is inactive: 2.47. As to `CCCCCCc1ccc(O)cc1O.Nc1c2ccccc2nc2ccccc12` [Acrisorcin], the Mahalanobis distance was inactive: 2.25. For `CC1(C)S[C@@H]2[C@H](NC(=O)[C@H](NC(=O)N3CCNC3=O)c3ccccc3)C(=O)N2[C@H]1C(=O)O` [Azlocillin] the value was active: 4.15. As for `CC(C)c1ccc2oc3nc(N)c(C(=O)O)cc3c(=O)c2c1` [Amlexanox], the figure is inactive: 1.07. For `NC(=O)c1cc[n+](CC2=C(C(=O)O)N3C(=O)[C@@H](NC(=O)[C@@H](c4ccccc4)S(=O)(=O)[O-])[C@H]3SC2)cc1` [Cefsulodin Sodium] the value was inactive: 1.9. For `COC(=O)Nc1nc2cc(C(=O)c3ccccc3)ccc2[nH]1` [Mebendazole], the Mahalanobis distance is inactive: 1.87. For `Cc1cc2c(cc1S(N)(=O)=O)S(=O)(=O)CCC2` [Meticrane] the value was inactive: 1.22; for `Cc1c(C)c2c(c(C)c1O)CCC(C)(COc1ccc(CC3SC(=O)NC3=O)cc1)O2` (centres undefined) [Troglitazone], inactive: 1.28.

With `CC(C(=O)O)c1ccc2c(c1)Cc1cccnc1O2` (centres undefined) [Pranoprofen], the Mahalanobis distance was inactive: 2.08. As for `CN(C)CCCN1c2ccccc2Sc2ccccc21` [Promazine], the Mahalanobis distance was active: 2.52. As for `CC(C)(C(=O)O)c1ccc(C(O)CCCN2CCC(C(O)(c3ccccc3)c3ccccc3)CC2)cc1` (centres undefined) [Fexofenadine], the figure is inactive: 2.13. Consider `CN(N=O)C(=O)N[C@H]1C(O)O[C@H](CO)[C@@H](O)[C@@H]1O` (mixture of isomers) [Streptozosin], for which the Mahalanobis distance is inactive: 1.74. Take `Cc1onc(-c2ccccc2)c1-c1ccc(S(N)(=O)=O)cc1` [Valdecoxib]: the Mahalanobis distance is inactive: 2.15.

As for `C[C@]12CCC(=O)C=C1CC[C@@H]1[C@@H]2[C@@H](O)C[C@@]2(C)[C@H]1CC[C@]2(O)C(=O)CO` [Hydrocortisone], the Mahalanobis distance is inactive: 1.78. As to `CCOC(=O)C1=C[C@@H](OC(CC)CC)[C@H](NC(C)=O)[C@@H](N)C1` [Oseltamivir], the Mahalanobis distance was inactive: 1.74.

With `Oc1ncnc2[nH]ncc12` [Allopurinol], the Mahalanobis distance is inactive: 2.46. As for `CC1(C)S[C@@H]2[C@H](NC(=O)[C@H](N)c3ccc(O)cc3)C(=O)N2[C@H]1C(=O)O` [Amoxicillin], the figure is inactive: 2.3; as for `CCC(=O)O[C@@H](O[P@](=O)(CCCCc1ccccc1)CC(=O)N1C[C@H](C2CCCCC2)C[C@H]1C(=O)O)C(C)C` [Fosinopril], inactive: 2.32. As to `COc1cccc2c1C(=O)c1c(O)c3c(c(O)c1C2=O)C[C@@](O)(C(=O)CO)C[C@@H]3O[C@H]1C[C@H](N)[C@H](O)[C@H](C)O1` [Doxorubicin], the Mahalanobis distance is inactive: 2.2.

`OCCOCCN1CCN(C2=Nc3ccccc3Sc3ccccc32)CC1` [Quetiapine]: the Mahalanobis distance was inactive: 1.76. `Cc1ccc2c(Br)cc(Br)c(OC(=O)c3ccccc3)c2n1` [broxaldine]: the Mahalanobis distance was inactive: 1.75. As for `CN[C@@H]1[C@H](O[C@H]2[C@H](O[C@H]3[C@H](O)[C@@H](O)[C@H](N=C(N)N)[C@@H](O)[C@@H]3N=C(N)N)O[C@@H](C)[C@]2(O)C=O)O[C@@H](CO)[C@H](O)[C@H]1O` [Streptomycin Sulfate], the Mahalanobis distance was active: 2.55. For `Nc1nc(Cl)nc2c1ncn2[C@H]1C[C@H](O)[C@@H](CO)O1` [Cladribine] the value was inactive: 2.08.
